# Source: PubChem BioAssay AID445 (National Center for Advancing Translational Sciences (NCATS), 2006)
# The list shows a part of the results. Shown are side measurements of this screen, not its main read-out; they come without a call. The list favours compounds with an active or inconclusive main result. The note in brackets gives the kind of curve behind each potency; many fits are weak.
# Assay: IkB Signaling
# Details: ABC-DLBCL IkBa-CBG/CBR dual luciferase ratio (green luciferase fused to IkBa over red control in OCI-Ly3 lymphoma cells), 4 h
# Method in brief: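 In this assay, an IκBα–CBG68 fusion accumulates when IKK-driven degradation is blocked; native CBR normalizes for cell number. OCI-Ly3 cells were treated 4 h with compound and doxycycline, then green and red light read after Chroma-Glo addition.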
# [1] = measured here: control luc red channel unless noted
smiles,measurement,setting,value
O=C(CSc1nc(-c2cccs2)cc(C(F)(F)F)n1)Nc1ccccc1Cl,AC50,[1],"39.8 µM [falling, single point]"
O=C(Nc1ccc2nc(SCC(=O)N3CCc4ccccc43)sc2c1)c1ccc(Cl)cc1,AC50,[1],"0.0794 µM [falling, full curve, poor fit]"
Cc1cccc(C(=O)Nc2sc3c(c2C(=O)Nc2ccccc2)CCC3)c1,AC50,[1],"25.1 µM [falling, partial curve]"
COc1ccc(C)cc1NC(=O)Cc1ccc(NC(=O)N2CCCCc3ccccc32)cc1,AC50,[1],"2.51 µM [falling, partial curve]"
CCOC(=O)C1=C(CN(C)Cc2ccccc2)NC(=O)NC1c1ccc(OC(C)C)cc1 (centres undefined),AC50,[1],"25.1 µM [falling, single point]"
COc1ccc(-c2noc(CSc3nnc(C)n3-c3ccc(C)cc3)n2)cc1,AC50,[1],"20 µM [falling, single point]"
COc1ccc(N2CC(C(=O)Nc3ccccc3-c3nc(-c4ccc(C)cc4)no3)CC2=O)cc1 (centres undefined),AC50,[1],"10 µM [falling, partial curve]"
Cn1c(=O)c2c(nc(NCc3ccccc3)n2Cc2ccc(Cl)c(Cl)c2)n(C)c1=O,AC50,[1],"12.6 µM [falling, partial curve]"
COc1cccc(NC(=O)c2oc3ccc(S(=O)(=O)N4CCC5(CC4)OCCO5)cc3c2C)c1,AC50,[1],"25.1 µM [falling, partial curve]"
CN(C)c1ccc(CNS(=O)(=O)c2csc(C(N)=O)c2)cc1,AC50,[1],"31.6 µM [falling, single point]"
O=C(NCC(c1ccco1)S(=O)(=O)c1cccs1)c1ccc(C(F)(F)F)cc1 (centres undefined),AC50,[1],"0.0501 µM [falling, full curve, poor fit]"
CC(=O)OC(/C(O)=C(\C#N)c1nc2ccccc2[nH]1)c1ccccc1 (centres undefined),AC50,[1],"7.94 µM [falling, partial curve]"
COc1cccc(NC(=O)Nc2cc(-c3cn4cccnc4n3)ccc2OC)c1,AC50,[1],"31.6 µM [falling, single point]"
Cc1ccccc1NC(=O)CSc1nc2ccc(NC(=O)c3ccco3)cc2s1,AC50,[1],"39.8 µM [falling, single point]"
COc1ccc(C)cc1NC(=O)c1cc(S(=O)(=O)NCCC2=CCCCC2)ccc1F,AC50,[1],"15.8 µM [falling, partial curve]"
O=C(CSCc1ccc(F)cc1)N1CCc2c([nH]c3ccccc23)C1c1ccccc1 (centres undefined),AC50,[1],"39.8 µM [falling, partial curve, poor fit]"
CCCOc1ccc(Cn2c(=O)sc3ccccc32)cc1,AC50,[1],"31.6 µM [falling, single point]"
COc1ccccc1NC(=O)c1c(NC(=O)c2cccs2)sc2c1CCC(C(C)(C)C)C2 (centres undefined),AC50,[1],"7.94 µM [falling, partial curve]"
CCn1c(SCC(=O)OC)nc2sc3c(c2c1=O)CCC3,AC50,[1],"1 µM [rising, partial curve]"
CCc1ccc(OC(=O)c2sc3ncn(Cc4cccc(F)c4)c(=O)c3c2C)cc1,AC50,[1],"0.794 µM [rising, full curve]"
O=C(Nc1ccccc1)Nc1ccc(S(=O)(=O)N2CCCCC2)cc1,AC50,[1],"39.8 µM [falling, single point]"
Cc1ccc(CCNC(=O)C2CCCN(S(=O)(=O)c3ccc4c(c3)oc(=O)n4C)C2)cc1 (centres undefined),AC50,[1],"2 µM [falling, partial curve]"
CCc1ccc(C(=O)c2cn(Cc3ccccc3)c3cc(OC)c(OC)cc3c2=O)cc1,AC50,[1],"25.1 µM [falling, single point]"
CCCCOC(=O)c1ccc(Nc2nc3ccc(C)cc3n3cnnc23)cc1,AC50,[1],"1 µM [falling, full curve]"
Cc1ccc(CSCCC(=O)N2CCN(c3cc(C)ccc3C)CC2)cc1,AC50,[1],"31.6 µM [falling, partial curve]"
CCCN(CCC)C(=O)C1CCCN(c2ncnc3onc(-c4ccc(F)cc4)c23)C1 (centres undefined),AC50,[1],"15.8 µM [falling, partial curve]"
COc1ccc(-c2noc(CN(C(=O)Cc3ccc(C)cc3)C(C)C)n2)cc1,AC50,[1],"25.1 µM [falling, partial curve]"
COCCCNC(=O)c1sc2nc(C)c(C(=O)Nc3ccc(C)cc3C)c(-c3ccc(Br)cc3)c2c1N,AC50,[1],"10 µM [falling, partial curve]"
CCC(C)NC(=O)CSc1nnc(-c2ccc(C)cc2)c(-c2ccc(C)cc2)n1 (centres undefined),AC50,[1],"25.1 µM [falling, partial curve]"
Cc1cn2c(=O)cc(COC(=O)c3ccccc3F)nc2s1,AC50,[1],"3.16 µM [falling, full curve]"
COc1cc(C)ccc1OCCSc1nc2ccc(NC(=O)c3cccs3)cc2s1,AC50,[1],"5.01 µM [falling, full curve]"
Cc1ccc(CNC(=O)CN2C(=O)CSc3ccc(S(=O)(=O)N4CCCC4)cc32)cc1,AC50,[1],"39.8 µM [falling, single point]"
CCc1ccc(C(=O)CSc2nc(-c3ccccc3)nc3c2CCCC3)cc1,AC50,[1],"25.1 µM [falling, single point]"
O=C(Nc1ccc2oc(-c3ccccc3)nc2c1)c1ccc2c(c1)OCCO2,AC50,[1],"12.6 µM [falling, partial curve]"
CN(C)c1ccc(CNC(=O)CN2C(=O)CCn3nc(-c4cn(C)c5ccccc45)cc32)cc1,AC50,[1],"6.31 µM [falling, full curve]"
Cc1c(NC(=O)Nc2ccc(Cl)c(C(F)(F)F)c2)c(=O)n(-c2ccccc2)n1C,AC50,[1],"39.8 µM [falling, single point]"
Fc1ccccc1N1CCN(c2ncnc3onc(-c4cccc(Cl)c4)c23)CC1,AC50,[1],"15.8 µM [falling, partial curve]"
CCOC(=O)CSc1nnc(-c2cccc(Br)c2)o1,AC50,[1],"15.8 µM [falling, partial curve]"
CC(=O)Nc1ccc(NC(=O)c2nc(SCc3ccccc3C)ncc2Cl)cc1,AC50,[1],"2.51 µM [falling, full curve]"
Cc1cccn2c(=O)cc(COc3ccc(NC(=O)C(C)Oc4ccccc4)cc3)nc12 (centres undefined),AC50,[1],"0.0251 µM [falling, full curve]"
Cn1c(=O)c2c(-c3ccccc3Br)n(Cc3ccccc3)cc2n(C)c1=O,AC50,[1],"25.1 µM [falling, partial curve]"
NS(=O)(=O)c1ccc(NC(=O)CN2CCN(c3ccc(F)cc3)CC2)cc1,AC50,[1],"20 µM [falling, partial curve, poor fit]"
COc1ccc(-c2cc3c(=O)n(CC(=O)Nc4cc(C)ccc4C)ccn3n2)cc1,AC50,[1],"3.16 µM [rising, full curve]"
Cc1ccc(Cl)cc1-n1ncc2c(NCCC3=CCCCC3)ncnc21,AC50,[1],"39.8 µM [falling, single point]"
Cc1ccc(CNC(=O)c2cccc(NC(=O)N3CCSc4ncccc43)c2)cc1,AC50,[1],"15.8 µM [falling, partial curve]"
Cc1cc(C)cc(NC(=O)CCCc2nnc3n(CC(C)C)c(=O)c4sccc4n23)c1,AC50,[1],"15.8 µM [falling, partial curve]"
Cc1ccc(NC(=O)c2ccc3c(c2)NC(=O)c2ccccc2S3)cc1,AC50,[1],"15.8 µM [falling, partial curve]"
CCC1S/C(=C(\C#N)C(=O)NCc2ccco2)N(c2ccc(Br)cc2)C1=O (centres undefined),AC50,[1],"12.6 µM [falling, partial curve]"
CC(C)(C)c1nc(SCC(=O)NCc2ccco2)c2ccccc2n1,AC50,[1],"39.8 µM [falling, single point]"
CCOc1cc(C2CC(=O)Nc3c2c(=O)nc(SCc2cccc(Cl)c2)n3C)ccc1O (centres undefined),AC50,[1],"15.8 µM [falling, partial curve]"
O=C(Nc1cccc(Cl)c1)c1cc(S(=O)(=O)N2CCCc3ccccc32)ccc1F,AC50,[1],"12.6 µM [falling, partial curve]"
Cc1ccccc1CNC(=O)c1cc2cccc3c2n1CC(C)S3 (centres undefined),AC50,[1],"25.1 µM [falling, partial curve]"
O=c1oc2ccccc2cc1NCc1ccccc1O,AC50,[1],"15.8 µM [falling, partial curve]"
COc1ccc(Cl)cc1NC(=O)Cn1nnc(C(=O)NCc2cccs2)c1N,AC50,[1],"3.16 µM [rising, full curve]"
COc1ccccc1NC(=O)COC(=O)CC(C)(C)CC1=NS(=O)(=O)c2ccccc2N1,AC50,[1],"20 µM [falling, partial curve]"
COc1cccc(-c2cc(C(=O)N3CCN(c4ncccn4)CC3)c3ccccc3n2)c1,AC50,[1],"3.98 µM [falling, full curve]"
COc1ccc(N2CCN(C(=O)c3c4c(nc5ccccc35)C(=O)N(C3CCCCC3)C4)CC2)cc1,AC50,measured here: IkB-luc green channel,"0.0501 µM [rising, full curve, poor fit]"
same,AC50,measured here: control luc red channel,"12.6 µM [falling, partial curve]"
O=C(Nc1ccc2nc(SCC(=O)N3CCCC3)sc2c1)c1cccc(F)c1,AC50,[1],"12.6 µM [falling, partial curve]"
Cc1ccc(C2c3c(-c4ccccc4O)n[nH]c3C(=O)N2Cc2ccncc2)cc1 (centres undefined),AC50,[1],"15.8 µM [falling, partial curve]"
COc1ccc2cc(C(c3nnnn3C3CCCC3)N3CCc4ccccc4C3)c(=O)[nH]c2c1 (centres undefined),AC50,[1],"39.8 µM [falling, single point]"
COC(=O)c1ccc(NC(=O)CN(C)S(=O)(=O)c2ccc(OC)c(C)c2)cc1,AC50,[1],"10 µM [falling, partial curve]"
O=C(CN(c1cccc(C(F)(F)F)c1)S(=O)(=O)c1ccccc1)Nc1cccc(Cl)c1,AC50,[1],"20 µM [falling, partial curve, poor fit]"
Cc1ccc([N+](=O)[O-])c(Oc2ncnc3c2oc2ccccc23)c1,AC50,[1],"0.00631 µM [rising, full curve, poor fit]"

# A portion taken from the entries so far, as a working copy:
smiles,measurement,setting,value
CCc1ccc(OC(=O)c2sc3ncn(Cc4cccc(F)c4)c(=O)c3c2C)cc1,AC50,[1],"0.794 µM [rising, full curve]"
O=C(Nc1ccccc1)Nc1ccc(S(=O)(=O)N2CCCCC2)cc1,AC50,[1],"39.8 µM [falling, single point]"
Cc1ccc(CCNC(=O)C2CCCN(S(=O)(=O)c3ccc4c(c3)oc(=O)n4C)C2)cc1 (centres undefined),AC50,[1],"2 µM [falling, partial curve]"

# 2 entries from above, with bars between the fields.
smiles | measurement | setting | value
Cc1ccc(CNC(=O)c2cccc(NC(=O)N3CCSc4ncccc43)c2)cc1 | AC50 | [1] | 15.8 µM [falling, partial curve]
Cc1cc(C)cc(NC(=O)CCCc2nnc3n(CC(C)C)c(=O)c4sccc4n23)c1 | AC50 | [1] | 15.8 µM [falling, partial curve]
